Reference: PubChem BioAssay AID504842 (National Center for Advancing Translational Sciences (NCATS), 2011)
Out of some 330,000 compounds screened, about 100 (0.03%) were called active. Inconclusive results, whose numbers are uncertain, are shown with a selection of clear calls. Calls come from the whole dose curve; as a rule, active = well fitted inhibition curve with a large enough effect; inconclusive = small, poorly fitted or top-dose-only effect; inactive = flat fitted curve, though single readings scatter. Potencies beside an inconclusive call are fits to weak or partial responses and may not hold up.

Each molecule was assayed on Chaperonin Mm-Cpn (Methanococcus maripaludis) (assay: Inhibitors of TCP-1 ring complex (TRiC) of Methanococcus maripaludis (MmCpn): qHTS). Conditions: purified Mm-Cpn ATPase, ADP Transcreener TR-FRET; activity, negative = inhibition: at the top concentration.
Procedure, shortened: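 Quantitative HTS used 25 nM Mm-CPN and 10 uM ATP in magnesium/KCl Tris buffer, pH 7.4, with 1 mM DTT. Hydrolysis ran 30 min at 37°C; ADP was read by HTRF.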
% is set by controls: 0 for no effect and ±100 for the full control effect; potency is the fitted concentration of half-maximal effect.
Note: nearly all actives have a fitted effect of over 80% in size.
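Throughout, for Potency: enzyme at 25 nM with ATP substrate at 10 µM during the reaction.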

| Structure (SMILES) | activity, negative = inhibition | Potency |
| --- | --- | --- |
| C=CCn1c2ccccc2c2n[nH]c(=S)nc21 | inactive: 0.844% | – |
| CCOC(=O)C1=C(N)OC2=C(C(=O)CC(C)(C)C2)C1c1cc(CSc2nnnn2C)cs1 (stereo not drawn) | – | inconclusive: 112 µM [inhibitor, single point] |
| CCOC(=O)C(NC(=O)CC)(Nc1ccccc1OC)C(F)(F)F (stereo not drawn) | – | inconclusive: 14.1 µM [inhibitor, single point] |
| c1ccc(-c2nnc(N3CCN(c4ccccc4)CC3)nc2-c2ccccc2)cc1 | – | inconclusive: 17.8 µM [inhibitor, single point] |
| COc1ccc2[nH]c(C(=O)NCc3ccc4c(c3)OCO4)cc2c1 | – | inconclusive: 100 µM [inhibitor, partial curve, poor fit] |
| COC(=O)c1ccc(CSc2n[nH]c(=S)s2)o1 | – | inconclusive: 25.1 µM [inhibitor, single point] |
| COc1ccc(-c2nc(NC(C)=O)sc2-c2ccccc2)cc1 | – | inconclusive: 79.4 µM [inhibitor, single point] |
| CCC(=O)N/N=C/c1ccc(-c2ccc([N+](=O)[O-])cc2)o1 | – | inconclusive: 22.4 µM [inhibitor, single point] |
| Cc1noc(C)c1C(=O)Nc1c(F)cc(F)cc1Br | inactive: 1.31% | – |
| Cc1ccc(C(=O)Nc2ccccc2N2CCCCC2)cc1[N+](=O)[O-] | – | inconclusive: 89.1 µM [inhibitor, single point] |
| Cc1nc2ccc(NC(=O)CS(=O)(=O)c3ccc(F)cc3)cc2s1 | inactive: 1.35% | – |
| CCCNc1nc(-c2cc(-c3ccc(Cl)cc3)on2)cc(C(C)C)n1 | – | inconclusive: 100 µM [inhibitor, partial curve, poor fit] |
| Cc1cc(C)c(-n2nnnc2SCC(=O)c2cc3ccccc3o2)c(C)c1 | – | inconclusive: 22.4 µM [inhibitor, single point] |
| O=C(CSc1nnc(NC(=O)c2ccco2)s1)Nc1ccccc1 | – | inconclusive: 100 µM [inhibitor, single point] |
| Cc1ccc(C(=O)/C=C/c2cc(Br)cc(Br)c2O)o1 | – | inconclusive: 224 µM [inhibitor, partial curve, poor fit] |
| COc1ccc(CCN(C)C(=O)c2cccc(S(=O)(=O)NCc3ccccc3)c2)cc1OC | – | inconclusive: 10 µM [inhibitor, partial curve, poor fit] |
| Cc1c(-c2ccccc2)nc2ccccc2c1C(=O)OCC(=O)Nc1ncc(C(F)(F)F)cc1Cl | – | inconclusive: 100 µM [inhibitor, partial curve, poor fit] |
| COc1ccc(C2CC(c3ccc4ccccc4c3)=NN2C(=O)CSc2ncccn2)cc1 (stereo not drawn) | – | inconclusive: 100 µM [inhibitor, single point] |

Part of the list above in a different format.
Structure (SMILES)	activity, negative = inhibition	Potency
Cc1ccc(C(=O)/C=C/c2cc(Br)cc(Br)c2O)o1	–	inconclusive: 224 µM [inhibitor, partial curve, poor fit]
COc1ccc(CCN(C)C(=O)c2cccc(S(=O)(=O)NCc3ccccc3)c2)cc1OC	–	inconclusive: 10 µM [inhibitor, partial curve, poor fit]
